The data set relates to infant microbiota (pooled fecal samples from 3 healthy infants). Briefly: Fermentation of galactosyllactoses by infant fecal microbiota (i-Screen anaerobic colon model). Further details: species or system human. To be noted: t = 24 h. How it is done: The effect of pure 3′-GL, 4′-GL, and 6′-GL of the three galactosyllactoses functionality (pH, lactate, acetate levels) was evaluated. Beta1,3-galactosyllactose (beat3′-GL), beta1,4-galactosyllactose (beta4′-GL) and beta1,6-galactosyllactose (beta6′-GL) were obtained from Carbosynth (Berkshire, UK) Measurements of all parameters were performed after a 24-hour incubation in the high-throughput anaerobic colon model, i-Screen™ (TNO, Zeist, the Netherlands).
Fecal samples from 3 healthy infants (aged 1-4 months) were pooled and activated for 4 hours in a modified standard ileal efflux medium (pH 6.0) at 37° C. under anaerobic conditions. Next, each GL was added. After an incubation for 24 hours at 37° C. under anaerobic conditions, samples were collected for further analysis and pH levels were immediately measured using a pH meter MultiCal pH 526 (WTW, Weilheim, Germany). The samples were centrifuged at 4,000 g for 5 minutes and the supernatant was filter sterilized using 0.45 μm filters. For the SCFA analysis, a mixture of formic acid ([…]), methanol and 2-ethyl butyric acid (internal standard, 2 mg/ml in methanol) was added to the filtered supernatant. […] The levels of acetic acid and lactic acid were measured. For lactate analysis, the total of D- and L-lactate was determined the filtered supernatant by the Arena 20XL analyser. […]

For one substance, pH results are on record in patent publication US20240277739A1, “NUTRITONAL COMPOSITIONS FOR GUT BARRIER FUNCTION” (N.V. Nutricia, priority 2021, published 2024).

Take “Gal (beta 1-3)-Gal (beta 1-4)-Glc [beta3′-GL]”: the pH (3 mg/ml) amounted to 5.5 and the pH (9 mg/ml) stood at 4.5.
